Experimental data published in article PMC6657086.

By UniProt entry, the sequences of proteins in these tests, tags left out.
UniProt P17096: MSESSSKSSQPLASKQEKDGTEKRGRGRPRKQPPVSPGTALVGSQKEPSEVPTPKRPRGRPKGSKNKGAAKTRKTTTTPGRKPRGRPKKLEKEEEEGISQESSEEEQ

Target: T1, KIFC1-Flag (kinesin family member C1), stably expressed in HepG2 cells (human) (UniProt Q9BW19)
T1 sequence: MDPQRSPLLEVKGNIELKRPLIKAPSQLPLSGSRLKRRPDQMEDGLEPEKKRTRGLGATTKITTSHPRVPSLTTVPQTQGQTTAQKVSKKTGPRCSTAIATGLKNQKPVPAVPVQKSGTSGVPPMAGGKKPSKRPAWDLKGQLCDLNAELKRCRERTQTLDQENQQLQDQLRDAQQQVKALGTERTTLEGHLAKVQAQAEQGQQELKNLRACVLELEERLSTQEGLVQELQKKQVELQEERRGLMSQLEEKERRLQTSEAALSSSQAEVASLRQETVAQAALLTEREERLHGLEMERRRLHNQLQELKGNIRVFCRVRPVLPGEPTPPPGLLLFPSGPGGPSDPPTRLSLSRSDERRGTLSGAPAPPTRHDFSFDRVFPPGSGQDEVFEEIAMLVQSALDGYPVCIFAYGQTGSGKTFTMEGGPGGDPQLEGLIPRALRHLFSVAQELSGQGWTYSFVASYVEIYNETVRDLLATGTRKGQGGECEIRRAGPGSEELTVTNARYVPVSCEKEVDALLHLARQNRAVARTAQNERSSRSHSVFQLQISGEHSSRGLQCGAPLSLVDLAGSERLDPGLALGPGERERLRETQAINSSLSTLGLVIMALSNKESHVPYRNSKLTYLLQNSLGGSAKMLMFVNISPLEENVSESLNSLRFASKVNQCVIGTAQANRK
Test: affinity purification with mass spectrometry; whole cell lysates of HepG2-vector and HepG2-KIFC1-Flag cells precleared with protein A/G beads, immunoprecipitated with Flag-tag antibody; silver staining and mass spectrometry of the precipitates

HMGA1 (high mobility group AT-hook 1), endogenous in HepG2 cells (from UniProt P17096 1-107)
binding: binds

These are yes or no findings as the source states them, for the method shown. In cells and extracts the contact can be indirect. Here binding means that the protein was enriched with, or labelled near, the bait; the list need not be complete. Where a sequence is shown, tags or fusion partners need not be part of it.
